Assay results from PMC5309860 (2017).
No constants are given. Whether binding was seen depends on the method and setting. In cells and extracts the contact can be indirect. Some entries that bind do so weakly or less than the wild type.

Protein sequences, listed by entry. Tags and fused reporters are not part of them. Lines headed by an entry give the natural chain unless they say otherwise; changes in a name come on top.
UniProt Q8BWG8: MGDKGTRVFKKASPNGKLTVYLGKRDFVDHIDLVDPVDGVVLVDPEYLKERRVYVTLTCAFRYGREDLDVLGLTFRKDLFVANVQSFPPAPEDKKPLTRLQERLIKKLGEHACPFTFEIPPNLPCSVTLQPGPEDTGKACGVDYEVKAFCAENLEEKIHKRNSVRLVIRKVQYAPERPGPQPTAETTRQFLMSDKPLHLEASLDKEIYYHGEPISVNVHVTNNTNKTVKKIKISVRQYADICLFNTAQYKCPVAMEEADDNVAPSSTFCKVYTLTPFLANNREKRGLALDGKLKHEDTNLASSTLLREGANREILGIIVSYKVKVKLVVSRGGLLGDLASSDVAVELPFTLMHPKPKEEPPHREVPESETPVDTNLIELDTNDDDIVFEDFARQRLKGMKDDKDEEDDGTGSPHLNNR
UniProt P49407: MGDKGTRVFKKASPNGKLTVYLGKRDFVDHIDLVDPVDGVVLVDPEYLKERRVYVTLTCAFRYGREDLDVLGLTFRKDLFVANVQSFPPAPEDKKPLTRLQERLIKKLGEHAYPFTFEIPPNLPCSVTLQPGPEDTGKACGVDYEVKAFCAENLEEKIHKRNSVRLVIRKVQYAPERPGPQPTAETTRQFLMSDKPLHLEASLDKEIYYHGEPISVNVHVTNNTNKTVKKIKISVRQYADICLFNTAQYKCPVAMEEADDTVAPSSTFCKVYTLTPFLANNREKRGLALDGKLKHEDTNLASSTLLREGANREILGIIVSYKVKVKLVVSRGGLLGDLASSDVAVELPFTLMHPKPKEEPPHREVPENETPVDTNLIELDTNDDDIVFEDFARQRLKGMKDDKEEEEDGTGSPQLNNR

T1: phosphoinositide-specific phospholipase C (PLCγ1) (human (endogenous in HEK293)) (UniProt P19174)
T1 sequence: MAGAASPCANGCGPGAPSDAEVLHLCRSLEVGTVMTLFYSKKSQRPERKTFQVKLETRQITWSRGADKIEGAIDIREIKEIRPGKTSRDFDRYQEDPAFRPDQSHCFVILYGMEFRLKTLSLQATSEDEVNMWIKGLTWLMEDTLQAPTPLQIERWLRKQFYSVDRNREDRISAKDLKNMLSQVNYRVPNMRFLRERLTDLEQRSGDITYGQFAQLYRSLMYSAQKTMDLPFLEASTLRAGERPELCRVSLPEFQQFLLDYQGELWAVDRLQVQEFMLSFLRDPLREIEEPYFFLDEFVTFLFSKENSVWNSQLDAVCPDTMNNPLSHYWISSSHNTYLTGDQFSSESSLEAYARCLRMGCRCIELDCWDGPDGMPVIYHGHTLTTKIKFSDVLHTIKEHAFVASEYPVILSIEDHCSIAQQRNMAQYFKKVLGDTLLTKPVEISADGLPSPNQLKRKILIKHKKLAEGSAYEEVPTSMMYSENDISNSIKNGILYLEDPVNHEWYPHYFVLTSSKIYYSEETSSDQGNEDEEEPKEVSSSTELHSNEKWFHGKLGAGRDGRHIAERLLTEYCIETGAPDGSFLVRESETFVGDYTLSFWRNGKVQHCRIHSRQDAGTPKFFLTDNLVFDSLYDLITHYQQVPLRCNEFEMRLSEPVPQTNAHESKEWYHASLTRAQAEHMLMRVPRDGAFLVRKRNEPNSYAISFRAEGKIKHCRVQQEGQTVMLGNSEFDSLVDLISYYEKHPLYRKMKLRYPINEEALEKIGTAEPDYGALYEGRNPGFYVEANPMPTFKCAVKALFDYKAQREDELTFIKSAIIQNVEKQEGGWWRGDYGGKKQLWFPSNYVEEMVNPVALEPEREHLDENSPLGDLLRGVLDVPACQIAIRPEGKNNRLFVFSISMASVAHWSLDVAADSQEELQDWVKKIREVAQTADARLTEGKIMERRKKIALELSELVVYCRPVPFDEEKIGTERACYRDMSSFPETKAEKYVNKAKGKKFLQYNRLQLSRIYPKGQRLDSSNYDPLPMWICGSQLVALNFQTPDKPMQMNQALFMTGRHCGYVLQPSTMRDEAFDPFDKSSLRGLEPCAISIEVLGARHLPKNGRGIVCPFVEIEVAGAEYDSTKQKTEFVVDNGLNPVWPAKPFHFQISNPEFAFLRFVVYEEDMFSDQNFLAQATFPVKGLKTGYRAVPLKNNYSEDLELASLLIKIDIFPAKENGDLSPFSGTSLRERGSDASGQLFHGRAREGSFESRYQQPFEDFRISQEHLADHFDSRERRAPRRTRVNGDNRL


How the values were obtained:
[1] = target: T1, phosphoinositide-specific phospholipase C (PLCγ1) (human (endogenous in HEK293)); assay: co-IP; competition: TAT-P1 peptide (5 μM, 2 h) given to HEK293 cells with AT1R-cherry, TRPC3-GFP and β-arrestin-1 before TRV120027; loss of the PLCγ-β-arrestin-1 co-precipitate; only the binder purified
[2] = target: endogenous β-arrestin-1 (adrenal medulla) (mouse (endogenous in adrenal medulla)) (UniProt Q8BWG8); assay: co-IP; isolated adrenal medulla after 100 nM TRV120027; endogenous β-arrestin-1 precipitated with the antibody A1CT, partners detected by specific antibodies

Row | Molecule | binding [1] | binding [2]
1 | TAT-P1 peptide (from UniProt P49407 82-94) | binds | 
2 | endogenous TRPC3 (adrenal medulla) (protein, UniProt Q9QZC1 1-910) MSTKVKKCREPARVTLPAPEEEEDGEAEGGESQRRRRGWRGVNGGLEPPCPRAPPSPGPDASSEGSPSRWRTAGMRDKGRRQAVRGPAFMFGARGPSLTAEEERFLDAAEYGNIPVVRKMLEESRTLNVNCVDYMGQNALQLAVGNEHLEVTELLLKKENLARIGDALLLAISKGYVRIVEAILGHPGFAASRRLTLSPCEQELRDDDFYAYDEDGTRFSPDITPIILAAHCHKYEVVHLLLLKGARIERPHDYFCRCSDCAEKQRLDAFSHSRSRINAYKGLASPAYLSLSSEDPVLTALELSNELAKLANIEKEFKNDYRKLSMQCKDFVVGVLDLCRDSEEVEAILNGDLESAEPLERHGHKASLSRVKLAIKYEVKKFVAHPNCQQQLLTIWYENLSGLREQTIAIKCLVVLVVALGLPFLAIGYWIAPCSRLGKILRSPFMKFVAHAASFIIFLGLLVFNASDRFEGITTLPNITVIDYPKQIFRVKTTQFTWTEMLIMVWVLGMMWSECKELWLEGPREYIVQLWNVLDFGMLSIFIAAFTARFLAFLQATKAQQYVDSHVQESDLSEVTLPPEVQYFTYARDKWLPSDPQIISEGLYAIAVVLSFSRIAYILPANESFGPLQISLGRTVKDIFKFMVLFIMVFLAFMIGMFILYSYYLGAKVNPAFTTVEESFKTLFWSIFGLSEVTSVVLKYDHKFIENIGYVLYGIYNVTMVVVLLNMLIAMINSSYQEIEDDSDVEWKFARSKLWLSYFDDGKTLPPPFSLVPSPKSFVYFIMRITNFSKCRRRRLQKDLELGMGNSKSRLNLFTQSNSRVFESHSFNSILNQPTRYQQIMKRLIKRYVLKAQVDKENDEVNEGELKEIKQDISSLRYELLEDKSQATEELAILIHKLSEKLNPSVLRCE |  | binds
